Test results as given in publication PMC10709936.
These are yes or no findings as the source states them, for the method shown. Binding seen in cells or lysates may run through a third protein. Some entries that bind do so weakly or less than the wild type.

The chains behind the UniProt entries cited, without tags or fusion partners. Residues count along the entry.
UniProt P01024, residues 672-748: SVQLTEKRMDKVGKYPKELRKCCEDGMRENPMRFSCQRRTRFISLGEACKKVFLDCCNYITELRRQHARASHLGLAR

Assays:
[1] = target: C3a-peptide with 3XFlag tag (pcDNA3.1-C3a-peptide-Flag) (human); assay: co-IP; 293 T cells transfected with pcDNA3.1-C3a-peptide-Flag or pcDNA3.1-C3a-Flag; anti-Flag magnetic beads; blot for C3aR
[2] = target: C3a protein with 3XFlag tag (pcDNA3.1-C3a-Flag) (human) (UniProt P01024); assay: as above

- binding [1]: binds
- binding [2]: binds
B1: C3a receptor (C3aR) in 293 T cells (receptor, UniProt Q16581 1-482)
chain: MASFSAETNSTDLLSQPWNEPPVILSMVILSLTFLLGLPGNGLVLWVAGLKMQRTVNTIWFLHLTLADLLCCLSLPFSLAHLALQGQWPYGRFLCKLIPSIIVLNMFASVFLLTAISLDRCLVVFKPIWCQNHRNVGMACSICGCIWVVAFVMCIPVFVYREIFTTDNHNRCGYKFGLSSSLDYPDFYGDPLENRSLENIVQPPGEMNDRLDPSSFQTNDHPWTVPTVFQPQTFQRPSADSLPRGSARLTSQNLYSNVFKPADVVSPKIPSGFPIEDHETSPLDNSDAFLSTHLKLFPSASSNSFYESELPQGFQDYYNLGQFTDDDQVPTPLVAITITRLVVGFLLPSVIMIACYSFIVFRMQRGRFAKSQSKTFRVAVVVVAVFLVCWTPYHIFGVLSLLTDPETPLGKTLMSWDHVCIALASANSCFNPFLYALLGKDFRKKARQSIQGILEAAFSEELTRSTHCPSNNVISERNSTTV
